Binding data for 3 molecules are collected here from US20200339690A1.

Sequences of proteins named here, by UniProt entry; tags and fusion partners are left off. A change or cut given only in a name is not applied to a line headed by its entry.
UniProt Q8N423: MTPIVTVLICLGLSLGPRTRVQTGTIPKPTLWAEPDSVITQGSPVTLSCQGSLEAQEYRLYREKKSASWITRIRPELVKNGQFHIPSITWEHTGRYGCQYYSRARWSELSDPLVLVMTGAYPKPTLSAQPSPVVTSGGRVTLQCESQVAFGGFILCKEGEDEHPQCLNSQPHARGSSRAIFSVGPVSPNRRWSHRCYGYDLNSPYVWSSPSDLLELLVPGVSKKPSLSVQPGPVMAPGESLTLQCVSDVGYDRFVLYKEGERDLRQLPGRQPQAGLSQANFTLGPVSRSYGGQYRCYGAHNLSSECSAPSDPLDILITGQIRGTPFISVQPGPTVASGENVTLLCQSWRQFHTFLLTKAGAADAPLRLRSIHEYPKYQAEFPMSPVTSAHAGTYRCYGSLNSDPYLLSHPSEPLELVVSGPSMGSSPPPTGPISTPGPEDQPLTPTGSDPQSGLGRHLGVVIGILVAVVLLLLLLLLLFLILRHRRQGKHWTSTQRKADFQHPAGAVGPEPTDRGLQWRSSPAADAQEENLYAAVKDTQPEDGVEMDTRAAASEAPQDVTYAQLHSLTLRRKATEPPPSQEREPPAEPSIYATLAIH

These are yes or no findings as the source states them, for the method shown. Some binding calls cover weakened binding; strength is not graded here.

First the molecules themselves.
B1: J-11 (antibody, human IgG4 S228P, kappa, V domains shown)
VH: QVQLQQSGAELMKPGASVKLSCKATGYILTGYWIEWVKQRPGHGLEWIGEILPGSGSTNYNENFKGKATFTADTSSNTAYMQLSSLTTEDSAIYYCARAVLGYFDYWGQGTTLTVSS
VL: DIVMTQSHKFMSTSVGDRVSITCKASQDVSTAVAWYQQKPGQSPKLLIYWASTRHTGVPDRFTGSGSGTDYTLTISSVQAEDLALYYCHQHYSTYTFGGGTKLEIKR
B2: J-19 (antibody, human IgG4 S228P, kappa, V domains shown)
VH: QVTLKESGPGILQPSHTLSLTCSFSGFSLNTYAMGVSWIRQPSGKGLEWLASIWWNGNKYNNPSLKSRLTVSKDTSNNQAFLKVTSVDTADTATYYCAHSRIIRFTDYVMDAWGQGASVTVSS
VL: DIQMTQSPASLSTFLGEPVTIECRASEDIYNDLAWYQQKPGKSPQLLIYNANSLHTGVPSRFSGSGSGTQYSLKINSLQSEDVASYFCQQYYDYPLTFGSGTKLEIKR
B3: J-17 (antibody, human IgG4 S228P, kappa, V domains shown)
VH: QIQLVQSGPELKKPGETVKISCKASGYTFTTYGLSWVKQTPGKGLKWMGWINTYSGVPTYTDDFKGRFAFSLETSASTAYLQINNLKNEDTATYFCARPYDFDQVGFAYWGQGTLVTVSA
VL: SIVMTQTPKFLLVSAGDRVSITCKASQTVSSDVAWYQQKAGQSPKLLIYYASNRYTGVPDRFTGSGYGTDFTFTISTVQAEDLAVYFCQQDYSSPFTFGGGSKLEIKR

The experiment addresses human LILRB2 expressed on cells (human) (UniProt Q8N423). Briefly: flow cytometry, human whole blood, biotinylated mAb 25 ug/mL. A general note: A flow cytometer gives signals particle by particle.
B1: the binding result is given as “binds”.
Consider B2, for which the binding entry is listed as “binds”.
Under B3 stands “binds”.
